These are yes or no findings as the source states them, for the method shown. In cells and extracts the contact can be indirect. Some entries that bind do so weakly or less than the wild type. Sequences can lack the tags named with a protein.
T1: LONP1-Flag (UniProt P36776)
T1 sequence: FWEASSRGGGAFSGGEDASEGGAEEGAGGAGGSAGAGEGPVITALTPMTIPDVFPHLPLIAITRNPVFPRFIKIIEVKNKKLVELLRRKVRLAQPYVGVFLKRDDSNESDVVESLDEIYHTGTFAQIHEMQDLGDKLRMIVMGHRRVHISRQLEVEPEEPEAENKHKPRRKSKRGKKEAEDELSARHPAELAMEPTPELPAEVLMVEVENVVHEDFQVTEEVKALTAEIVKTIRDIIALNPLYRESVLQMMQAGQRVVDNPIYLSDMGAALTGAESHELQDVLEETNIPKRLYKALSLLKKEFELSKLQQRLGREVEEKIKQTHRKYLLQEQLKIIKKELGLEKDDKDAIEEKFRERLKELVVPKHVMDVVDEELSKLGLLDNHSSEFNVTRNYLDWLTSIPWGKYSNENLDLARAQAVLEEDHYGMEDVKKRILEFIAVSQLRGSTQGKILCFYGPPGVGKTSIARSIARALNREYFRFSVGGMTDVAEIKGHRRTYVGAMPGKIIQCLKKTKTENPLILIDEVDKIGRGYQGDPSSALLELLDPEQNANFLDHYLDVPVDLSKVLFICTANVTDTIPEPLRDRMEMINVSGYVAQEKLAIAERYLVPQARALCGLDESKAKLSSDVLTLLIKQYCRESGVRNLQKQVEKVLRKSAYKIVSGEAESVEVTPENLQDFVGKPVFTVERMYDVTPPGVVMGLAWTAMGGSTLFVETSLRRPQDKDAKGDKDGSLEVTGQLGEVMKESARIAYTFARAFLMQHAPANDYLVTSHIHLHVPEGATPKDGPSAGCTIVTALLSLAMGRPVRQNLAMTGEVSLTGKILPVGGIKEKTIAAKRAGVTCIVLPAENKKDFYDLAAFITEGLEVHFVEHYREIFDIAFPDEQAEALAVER

T2: LONP1-GST (human) (UniProt P36776)
T2 sequence: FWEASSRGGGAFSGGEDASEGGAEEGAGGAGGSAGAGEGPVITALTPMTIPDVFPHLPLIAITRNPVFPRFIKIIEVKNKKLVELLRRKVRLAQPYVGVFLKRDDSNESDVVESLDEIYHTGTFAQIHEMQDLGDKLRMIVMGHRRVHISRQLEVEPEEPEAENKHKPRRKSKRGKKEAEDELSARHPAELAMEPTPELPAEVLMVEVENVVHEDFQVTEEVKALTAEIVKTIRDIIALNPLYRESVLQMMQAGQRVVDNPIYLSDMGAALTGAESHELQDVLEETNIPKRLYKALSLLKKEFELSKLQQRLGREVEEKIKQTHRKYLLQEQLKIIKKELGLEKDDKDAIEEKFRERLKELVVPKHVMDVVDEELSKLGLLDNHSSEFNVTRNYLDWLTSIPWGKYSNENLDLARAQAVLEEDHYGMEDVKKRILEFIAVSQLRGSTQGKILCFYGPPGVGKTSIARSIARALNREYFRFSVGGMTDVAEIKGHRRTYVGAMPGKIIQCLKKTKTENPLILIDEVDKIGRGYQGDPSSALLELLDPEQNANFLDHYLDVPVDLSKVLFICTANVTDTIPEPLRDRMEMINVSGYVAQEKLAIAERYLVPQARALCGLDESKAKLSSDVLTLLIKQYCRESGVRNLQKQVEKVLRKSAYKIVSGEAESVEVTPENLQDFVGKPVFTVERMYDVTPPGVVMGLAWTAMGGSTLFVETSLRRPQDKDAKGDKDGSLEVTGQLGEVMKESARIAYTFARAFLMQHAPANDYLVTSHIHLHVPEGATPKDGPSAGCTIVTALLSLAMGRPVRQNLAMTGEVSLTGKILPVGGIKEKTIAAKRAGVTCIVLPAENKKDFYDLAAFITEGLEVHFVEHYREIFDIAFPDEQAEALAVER


Columns and labels:
LONP1-Flag = molecular target: T1, LONP1-Flag; experiment: co-IP; 293T cells transfected with LONP1-Flag and HMGCS2 plasmids, Bortezomib for 4 h before collection; mouse anti-flag antibody (20 μg/ml) or normal mouse IgG, protein A/G magnetic beads, 4°C; 50 mM Tris, 150 mM NaCl, 0.25% Tween 20, pH 7.5; western blot
LONP1-GST (human) = molecular target: T2, LONP1-GST (human); experiment: pull-down; purified LONP1-GST as bait, prey HMGCS2 from 293T cell lysates; Pierce GST Protein Interaction Pull-Down Kit; only the target purified

| binding (LONP1-Flag) | binding (LONP1-GST (human)) | Binder |
| --- | --- | --- |
| binds |  | HMGCS2 (from HMGCS2 plasmid, 293T cells) (enzyme, UniProt P54868 38-508) TASAVPLAKTDTWPKDVGILALEVYFPAQYVDQTDLEKYNNVEAGKYTVGLGQTRMGFCSVQEDINSLCLTVVQRLMERIQLPWDSVGRLEVGTETIIDKSKAVKTVLMELFQDSGNTDIEGIDTTNACYGGTASLFNAANWMESSSWDGRYAMVVCGDIAVYPSGNARPTGGAGAVAMLIGPKAPLALERGLRGTHMENVYDFYKPNLASEYPIVDGKLSIQCYLRALDRCYTSYRKKIQNQWKQAGSDRPFTLDDLQYMIFHTPFCKMVQKSLARLMFNDFLSASSDTQTSLYKGLEAFGGLKLEDTYTNKDLDKALLKASQDMFDKKTKASLYLSTHNGNMYTSSLYGCLASLLSHHSAQELAGSRIGAFSYGSGLAASFFSFRVSQDAAPGSPLDKLVSSTSDLPKRLASRKCVSPEEFTEIMNQREQFYHKVNFSPPGDTNSLFPGTWYLERVDEQHRRKYARRPV |
|  | binds | HMGCS2 (from 293T cell lysates) (enzyme, UniProt P54868 38-508) TASAVPLAKTDTWPKDVGILALEVYFPAQYVDQTDLEKYNNVEAGKYTVGLGQTRMGFCSVQEDINSLCLTVVQRLMERIQLPWDSVGRLEVGTETIIDKSKAVKTVLMELFQDSGNTDIEGIDTTNACYGGTASLFNAANWMESSSWDGRYAMVVCGDIAVYPSGNARPTGGAGAVAMLIGPKAPLALERGLRGTHMENVYDFYKPNLASEYPIVDGKLSIQCYLRALDRCYTSYRKKIQNQWKQAGSDRPFTLDDLQYMIFHTPFCKMVQKSLARLMFNDFLSASSDTQTSLYKGLEAFGGLKLEDTYTNKDLDKALLKASQDMFDKKTKASLYLSTHNGNMYTSSLYGCLASLLSHHSAQELAGSRIGAFSYGSGLAASFFSFRVSQDAAPGSPLDKLVSSTSDLPKRLASRKCVSPEEFTEIMNQREQFYHKVNFSPPGDTNSLFPGTWYLERVDEQHRRKYARRPV |
